Test results as given in PubChem BioAssay AID2685 (National Center for Advancing Translational Sciences (NCATS), 2010).
The list shows a part of the results. Further columns of the screen follow, without active or inactive calls. Compounds called inactive in the main read-out are mostly missing here. Words in brackets tell the shape of the fitted curve; partial curves, single points and poor fits give uncertain potencies.

Assay: qHTS Assay for Lipid Storage Modulators in Drosophila S3 Cells;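 as to cell number change: cells counted by Cell Tracker Red CMTPX staining in the red channel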
Conditions: BODIPY lipid droplet fluorescence, 18-24 h; for cell number change: measured here: cell count max response, cells fed with added oleic acid
In short: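 Drosophila S3 cells loaded with oleic acid (400 uM, as added) and compounds at several concentrations; lipid droplets imaged by 488-nm laser-scanning cytometry, 500–530 nm intensity and object ratio to cell channel. Percent activity normalized to 20 uM Triacsin C.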

[1] = measured here: cell number channel AC50, cells fed with added oleic acid
[2] = measured here: lipid fluorescence (Fed channel) AC50, cells fed with added oleic acid

For `O=C1NCCCC1C(=O)Nc1ccccc1C(F)(F)F` (stereo unspecified), the cell number change was -44.5% and the AC50 [1] was 8.2 µM [falling, partial curve].

Compound `O=c1c(C(c2nnnn2C2CCCCC2)N2CCCCC2)coc2ccc(Cl)cc12` (stereo unspecified) has a cell number change of -11.3%.

In the case of `CCOc1ccc(NC(=O)CSc2nc3[nH]ncc3c(=O)n2-c2ccccc2OC)cc1`, the cell number change is reported as 16.5% and the AC50 [2] is reported as 2.06 µM [rising, partial curve].

With `CNC(=O)c1[nH]cnc1C(=O)Nc1cccc(OC)c1` the cell number change was 1.72%.

`O=[N+]([O-])c1nn(-c2ccc3c(c2)OCCO3)n(O)c1=NCc1ccccc1Cl` gave a cell number change of -19.7%.

In the case of `CCc1nc(N2CCN(C(=O)CCl)CC2)c2c3c(sc2n1)CC(C)CC3` (stereo unspecified), the cell number change is reported as -51.7% and the AC50 [1] is reported as 6.51 µM [falling, partial curve].

For `Cc1ccccc1NC(=O)C1CCCN(S(=O)(=O)c2c(C)noc2C)C1` (stereo unspecified), the cell number change was -26.6% and the AC50 [2] was 1.16 µM [falling, full curve, poor fit].

With `CCOc1ccc(S(=O)(=O)NCCC(=O)NCC2CCCO2)cc1` (stereo unspecified) the cell number change was 1.17% and the AC50 [2] was 3.66 µM [rising, single point].

In the case of `c1coc(CSSCc2ccco2)c1`, the cell number change is reported as -27.2%, the AC50 [1] is reported as 4.11 µM [falling, single point] and the AC50 [2] is reported as 6.51 µM [falling, single point].

With `C/C(=N/NS(=O)(=O)c1cccc([N+](=O)[O-])c1)c1ccc2c(c1)OCO2` the cell number change was 26.7% and the AC50 [2] was 29.1 µM [rising, single point].

For `Cn1c(N2CCN(C(=O)C34CC5CC(CC(C5)C3)C4)CC2)nc2ccccc21`, the cell number change was -0.992% and the AC50 [2] was 8.2 µM [falling, partial curve, poor fit].

With `O=C(CSc1n[nH]c(-c2ccco2)n1)Nc1ccccc1Cl` the cell number change was -26.4% and the AC50 [2] was 29.1 µM [rising, single point].

With `CCOc1ccc(CCNC(=O)CN2C(=O)c3cccnc3Oc3ccc(Cl)cc32)cc1` the cell number change was -25% and the AC50 [2] was 11.6 µM [falling, partial curve].

For `O=C(Nc1nccs1)c1ccc2c(c1)OCO2`, the cell number change was 38%, the AC50 [1] was 9.2 µM [rising, partial curve, poor fit] and the AC50 [2] was 4.61 µM [falling, single point].

With `CC(C)CC[n+]1ccn(C2=C([O-])c3ccccc3C(=O)/C2=N\S(=O)(=O)c2ccccc2)c1` the cell number change was 16.2% and the AC50 [1] was 0.00461 µM [rising, full curve, poor fit].

For `CCCNC(=O)COC(=O)c1ccc(S(=O)(=O)N2CCCC2)cc1`, the cell number change was 93%.

With `Oc1ccc(/C=N/Nc2ccc(C(F)(F)F)cn2)c(O)c1` the cell number change was -40.8%, the AC50 [1] was 18.4 µM [falling, single point] and the AC50 [2] was 29.1 µM [falling, single point].

With `CN(C)/C(=N\S(=O)(=O)c1ccccc1)c1ccc([N+](=O)[O-])cc1` the cell number change was 24.9% and the AC50 [2] was 0.259 µM [rising, full curve, poor fit].

`COc1ccc(NC(=O)C2CCC(=O)N2C(=O)OCc2ccccc2)cc1` (stereo unspecified) showed a cell number change of -8.87%.

In the case of `COc1ccc(CNCC(=O)Nc2cccc(S(N)(=O)=O)c2)cc1`, the cell number change is reported as 4.04%, the AC50 [1] is reported as 0.146 µM [falling, full curve, poor fit] and the AC50 [2] is reported as 0.146 µM [falling, full curve, poor fit].

For `Cn1cc(C(=O)c2ccc(F)cc2)cc1-c1nc2ccccc2n1C`, the AC50 [1] was 6.51 µM [rising, single point] and the AC50 [2] was 2.91 µM [rising, partial curve].

For `CCOc1ccc2ccccc2c1C1NC(=O)NC(C)=C1C(=O)OCCOC` (stereo unspecified), the cell number change was 7.21% and the AC50 [2] was 29.1 µM [rising, single point].

For `CN(c1cccc(Cl)c1)S(=O)(=O)c1cccc(C(=O)NCc2ccncc2)c1`, the cell number change was -0.323% and the AC50 [2] was 6.51 µM [rising, single point].

Work on `COc1ccc(N(C)S(=O)(=O)c2cccc3cccnc23)c(OC)c1` yielded a cell number change of -18.7%.

In the case of `CC(C)(C)c1ccc(-c2csc(NNC3=NCCCCC3)n2)cc1`, the cell number change is reported as -92.2% and the AC50 [1] is reported as 14.6 µM [falling, partial curve, poor fit].

With `COc1ccc(-c2cc(=O)oc3cc(OC(=O)C4CCCCC4)c(Cl)cc23)cc1` the cell number change was 4.1% and the AC50 [2] was 3.66 µM [falling, partial curve].

With `CC(C)C(O)(c1ccccc1)C(CN1CCOCC1)c1ccccc1` (stereo unspecified) the cell number change was -41.4%, the AC50 [1] was 16.4 µM [falling, single point] and the AC50 [2] was 13 µM [falling, partial curve].

With `CCOC(=O)c1ccc(N2C(=O)C(CC(N)=O)N(NC(=O)c3cccc(F)c3)C2=S)cc1` (stereo unspecified) the cell number change was -11.1% and the AC50 [2] was 29.1 µM [falling, single point].

In the case of `O=C(Nc1cnn(C23CC4CC(CC(C4)C2)C3)c1)c1cnn2c(C(F)(F)F)cc(-c3ccco3)nc12`, the cell number change is reported as -20.1%, the AC50 [1] is reported as 5.8 µM [falling, partial curve] and the AC50 [2] is reported as 2.31 µM [falling, full curve].

In the case of `O=c1c2cccnc2[nH]c(=S)n1CCCN1CCN(c2ccccc2F)CC1`, the cell number change is reported as 19.1% and the AC50 [2] is reported as 6.51 µM [rising, single point].

With `CC(C)CC(=O)NC(=S)Nc1ccc(S(=O)(=O)N2CCCC2)cc1` the cell number change was -18.7% and the AC50 [2] was 29.1 µM [falling, single point].

For `Cc1ccc(S(=O)(=O)NC(=NCC(=O)O)c2ccccc2)cc1`, the cell number change was -26% and the AC50 [2] was 0.164 µM [falling, full curve, poor fit].

In the case of `O=C(Nc1nc2ccccc2[nH]1)C1CCN(C(=O)c2ccc(F)cc2)CC1`, the cell number change is reported as 28% and the AC50 [2] is reported as 0.92 µM [rising, full curve, poor fit].

With `O=C(NCc1ccncc1)c1ccc(S(=O)(=O)Nc2ccccc2)cc1` the cell number change was 8.38% and the AC50 [2] was 0.146 µM [falling, full curve, poor fit].

With `Cc1ccc(NC(=O)COc2ccccc2C(=O)NCCc2ccccc2)cc1` the cell number change was -22.8% and the AC50 [2] was 29.1 µM [falling, single point].

In the case of `COc1cc2[nH]c(=O)n(CCCCCC(=O)N3CCN(c4ccccc4)CC3)c(=O)c2cc1OC`, the AC50 [2] is reported as 4.61 µM [rising, single point].

In the case of `O=C(c1ccc(N2CCCC2=O)cc1)N1CCN(c2cccc(C(F)(F)F)c2)CC1`, the cell number change is reported as -33.7% and the AC50 [1] is reported as 29.1 µM [falling, single point].

For `C=CCn1c(Cc2ccccc2)nnc1SCc1nc2ccccc2c(=O)[nH]1`, the cell number change was -6.72% and the AC50 [1] was 6.51 µM [rising, single point].

`Cc1c(C(=O)N2CCCCCC2)oc2ccccc12` showed a cell number change of 0.0661%.

For `Cc1ccccc1Nc1c(-c2cccnc2)nc2ccccn12`, the cell number change was 26.8% and the AC50 [2] was 5.17 µM [rising, single point].

For `CC(=O)NS(=O)(=O)c1ccc(NC(=O)c2ccc3c(c2)C(=O)N(CCC(C)C)C3=O)cc1`, the cell number change was 61.4% and the AC50 [1] was 23.1 µM [rising, single point].

`CC(C)(C)OC(=O)N1CCN(C(=O)[C@H](Cc2ccc(O)cc2)n2cc(CCO)nn2)CC1` showed a cell number change of -11.7%.

For `O=C1c2cccnc2C(=O)N1Cc1cccs1`, the AC50 [2] was 0.116 µM [rising, single point].

With `C/C(=N\NC(=O)C1CC1)c1ccc(C)c(C)c1` the cell number change was 0.289%.

For `CCOC(=O)C1=C(C)NC2=C(C(=O)CC(C)(C)C2)C1c1cccc(C)n1` (stereo unspecified), the cell number change was -54.1% and the AC50 [1] was 29.1 µM [falling, single point].

In the case of `CC1CCCN(Cc2nc3c(c(=O)n(C)c(=O)n3C)n2CC(N)=O)C1` (stereo unspecified), the cell number change is reported as -13.1% and the AC50 [2] is reported as 29.1 µM [rising, single point].

In the case of `COc1ccc(-c2csc3ncnc(N4CCN(c5ccccc5OC)CC4)c23)cc1`, the cell number change is reported as -15.2% and the AC50 [2] is reported as 7.31 µM [rising, partial curve].

With `COCCn1c(=O)sc2ccccc2c1=O` the cell number change was 80.7%, the AC50 [1] was 20.6 µM [rising, single point] and the AC50 [2] was 29.1 µM [rising, partial curve, poor fit].

For `CCCCCCCCNC(C)C(O)c1ccc(SC(C)C)cc1` (stereo unspecified), the cell number change was -83.6%, the AC50 [1] was 18.4 µM [falling, single point] and the AC50 [2] was 25.9 µM [falling, partial curve].

In the case of `Nc1ccc(Cc2nc3cc4ccccc4cc3[nH]2)cc1`, the cell number change is reported as 31.8% and the AC50 [1] is reported as 8.2 µM [rising, partial curve, poor fit].

With `CCC(=O)Oc1ccc2c(C)cc(=O)oc2c1C(=O)c1ccccc1` the cell number change was 5.64% and the AC50 [2] was 0.116 µM [rising, full curve, poor fit].

For `O=C(NCCSc1ncc(-c2ccccc2)[nH]1)c1ccco1`, the AC50 [2] was 2.31 µM [rising, partial curve, poor fit].

For `O=C(NCC1CCCN1S(=O)(=O)c1cccs1)c1ccccc1` (stereo unspecified), the AC50 [2] was 0.651 µM [falling, single point].

For `O=C(O)c1sccc1NC(=O)c1c(Cl)cccc1Cl`, the cell number change was 13.5% and the AC50 [2] was 0.58 µM [rising, single point].

In the case of `Cc1cc(C)cc(NC(=O)C(NCCN2CCOCC2)c2ccccc2)c1` (stereo unspecified), the cell number change is reported as 67.5% and the AC50 [1] is reported as 13 µM [rising, partial curve].

In the case of `CNS(=O)(=O)c1ccc2c3c(cccc13)C(=O)N2`, the cell number change is reported as -5.96%.

With `COc1ccc(C(=O)OCC(=O)NCC2CCCCC2)c(OC)c1` the cell number change was 41.5% and the AC50 [1] was 7.31 µM [rising, partial curve, poor fit].

With `CCOc1ccc(Nc2nc(N)nc(CN3CCN(c4ccccc4F)CC3)n2)cc1` the cell number change was 16%, the AC50 [1] was 6.51 µM [rising, single point] and the AC50 [2] was 25.9 µM [rising, single point].

For `CC(CN1CCOCC1)OC(=O)c1ccc2c(c1)OCCO2` (stereo unspecified), the cell number change was 3.56% and the AC50 [2] was 23.1 µM [falling, single point].

With `Cc1ccc(Nc2nc(N)nc(CN3CCN(C)CC3)n2)cc1` the AC50 [2] was 23.1 µM [falling, partial curve].

In the case of `Cc1ccc(-n2nnc3c(=O)n(CC(=O)N4CCC(C)CC4)cnc32)cc1`, the cell number change is reported as -23.7% and the AC50 [2] is reported as 20.6 µM [falling, partial curve].
